Source: PMC10854834
These are yes or no findings as the source states them, for the method shown. Binding seen in cells or lysates may run through a third protein. Some results given as binding are weak or reduced against the parent protein; the word gives no strength. Sequences can lack the tags named with a protein.

How the values were obtained:
[1] = biological target: T1, CCR6*GFP (human CC-chemokine receptor 6 fused to GFP) (human) (UniProt P51684); experiment: condition: only after 10 min of incubation (500 ng/mL CCL18); co-IP; as a1, but cells loaded with 500 ng/mL recombinant human CCL18 for 10 min only; only the binder purified
T1 sequence: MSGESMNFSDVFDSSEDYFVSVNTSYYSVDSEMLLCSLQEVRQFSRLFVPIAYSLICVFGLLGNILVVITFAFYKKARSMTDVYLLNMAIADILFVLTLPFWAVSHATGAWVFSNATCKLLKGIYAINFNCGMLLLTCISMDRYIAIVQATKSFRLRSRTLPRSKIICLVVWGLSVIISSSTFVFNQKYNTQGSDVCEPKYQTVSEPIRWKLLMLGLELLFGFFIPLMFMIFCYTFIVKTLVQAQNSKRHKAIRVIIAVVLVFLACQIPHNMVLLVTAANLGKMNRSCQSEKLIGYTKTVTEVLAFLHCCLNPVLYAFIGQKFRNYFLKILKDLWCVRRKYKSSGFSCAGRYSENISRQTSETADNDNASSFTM

[2] = biological target: T1, CCR6*GFP (human CC-chemokine receptor 6 fused to GFP) (human); experiment: co-IP; RLE-6TN CCR6*GFP cells loaded with 500 ng/mL recombinant human CCL18 for 30 min, gently lysed, CCR6*GFP isolated with the isolation kit for GFP-tagged proteins (anti-GFP beads, Miltenyi), western blot with anti-CCR6 and anti-CCL18; only the binder purified

B1: recombinant human CCL18 (CC-chemokine 18) (ligand, UniProt P55774 21-89)
chain: AQVGTNKELCCLVYTSWQIPQKFIVDYSETSPQCPKPGVILLTKRGRQICADPNKKWVQKYISDLKLNA
B1 was tested, and the binding [1] was “no binding” and the binding [2] was “binds”.
